{
  "source": "PubChem BioAssay AID290",
  "about": "(DTP/NCI, 2004)",
  "system": "mice, P1798 lymphosarcoma sc, survival or tumor weight T/C",
  "assay": "NCI In Vivo Anticancer Drug Screen. Data for tumor model P1798 Lymphosarcoma (subcutaneous) in unknown mice",
  "conditions": "T/C endpoint: mean tumor weight, higher T/C = larger tumour",
  "protocol": "The antitumor activity of compounds was measured in mice bearing transplantable tumors. Survival or tumor size were measured and the results are expressed as the measurement made in the treated group (T) divided by the measurement made in the vehicle treated control group (C). The tumor model used in this assay is P1798 Lymphosarcoma (subcutaneous) in unknown mice",
  "key": {"[1]": {"conditions": "dose: 75.0 mg/kg/injection, schedule: Q01DX010 (ip), vehicle: carboxymethylcellulose (CMC)"}},
  "note": "The list shows only some results of the screen, not a fair sample: it is rich in T/C values a quarter to a half above the control, in often repeated tests (any T/C) and in doses without a T/C. Other doses and runs of a compound stand elsewhere. T/C: endpoint of the treated group in % of that of the vehicle group. Schedule codes are those of the source, read here as Q, the interval in days (D) or hours (H), X, the number of doses. Some doses have a count of surviving animals in place of a T/C: the source holds a T/C of zero for them, seemingly a mark for toxic or unscored doses. Counts of survivors are from the toxicity check (mostly the fifth day) where no day follows; animals may have died later.",
  "data": [
    {"smiles": "O=c1[nH]c(Cl)ncc1F", "values": [
      {"measurement": "survivor count", "setting": "dose: 22.0 mg/kg/injection, schedule: Q01DX010 (ip), vehicle: saline", "value": "3 of 6"},
      {"measurement": "survivor count", "setting": "dose: 33.0 mg/kg/injection, schedule: Q01DX010 (ip), vehicle: saline", "value": "0 of 6"},
      {"measurement": "survivor count", "setting": "dose: 50.0 mg/kg/injection, schedule: Q01DX010 (ip), vehicle: saline", "value": "0 of 6"},
      {"measurement": "survivor count", "setting": "dose: 75.0 mg/kg/injection, schedule: Q01DX010 (ip), vehicle: saline", "value": "0 of 6"}
    ]},
    {"smiles": "CC(C)=C(Br)CC[C@@H](C)[C@H]1CC[C@@]2(C)C3=C(CC[C@]12C)[C@@]1(C)CC[C@H](O)C(C)(C)[C@@H]1CC3", "values": [
      {"measurement": "T/C", "setting": "dose: 50.0 mg/kg/injection, schedule: Q01DX011 (sc), vehicle: steroid suspending solution, evaluated on day 12", "value": "140 % of control"},
      {"measurement": "T/C", "setting": "dose: 400.0 mg/kg/injection, schedule: Q01DX011 (sc), vehicle: steroid suspending solution, evaluated on day 12", "value": "134 % of control"}
    ]},
    {"smiles": "c1ccc(CNc2ncnc3[nH]ncc23)cc1", "values": [
      {"measurement": "survivor count", "setting": "dose: 31.25 mg/kg/injection, schedule: Q01DX010 (ip), vehicle: carboxymethylcellulose (CMC)", "value": "0 of 10"},
      {"measurement": "survivor count", "setting": "dose: 62.5 mg/kg/injection, schedule: Q01DX010 (ip), vehicle: carboxymethylcellulose (CMC)", "value": "0 of 10"},
      {"measurement": "survivor count", "setting": "dose: 125.0 mg/kg/injection, schedule: Q01DX010 (ip), vehicle: carboxymethylcellulose (CMC)", "value": "0 of 10"}
    ]},
    {"smiles": "c1ccc(COCC[P+](c2ccccc2)(c2ccccc2)c2ccccc2)cc1", "values": [
      {"measurement": "survivor count", "setting": "dose: 3.0 mg/kg/injection, schedule: Q01DX010 (ip), vehicle: saline", "value": "3 of 6"},
      {"measurement": "survivor count", "setting": "dose: 12.0 mg/kg/injection, schedule: Q01DX010 (ip), vehicle: saline", "value": "3 of 6"}
    ]},
    {"smiles": "N=[N+]=CC(=O)OCC(N)C(=O)O", "note": "(stereo unspecified)", "values": [
      {"measurement": "survivor count", "setting": "dose: 10.0 mg/kg/injection, schedule: Q01DX010 (ip), vehicle: saline", "value": "1 of 10"},
      {"measurement": "survivor count", "setting": "dose: 20.0 mg/kg/injection, schedule: Q01DX010 (ip), vehicle: saline", "value": "0 of 10"}
    ]},
    {"smiles": "S=C(N=Nc1ccccc1)NNc1ccccc1", "values": [
      {"measurement": "survivor count", "setting": "[1]", "value": "4 of 10"},
      {"measurement": "survivor count", "setting": "dose: 150.0 mg/kg/injection, schedule: Q01DX010 (ip), vehicle: carboxymethylcellulose (CMC)", "value": "0 of 10"},
      {"measurement": "survivor count", "setting": "dose: 300.0 mg/kg/injection, schedule: Q01DX010 (ip), vehicle: carboxymethylcellulose (CMC)", "value": "0 of 10"}
    ]},
    {"smiles": "CCCNc1ncnc2[nH]ncc12", "values": [
      {"measurement": "survivor count", "setting": "dose: 20.0 mg/kg/injection, schedule: Q01DX010 (ip), vehicle: water", "value": "3 of 10"},
      {"measurement": "survivor count", "setting": "dose: 40.0 mg/kg/injection, schedule: Q01DX010 (ip), vehicle: water", "value": "0 of 10"}
    ]},
    {"smiles": "NC(Cc1ccc(N(CCCl)CCCl)cc1)C(=O)O", "note": "(stereo unspecified)", "values": [
      {"measurement": "T/C", "setting": "dose: 2.5 mg/kg/injection, schedule: Q01DX010 (ip), vehicle: carboxymethylcellulose (CMC), evaluated on day 14", "value": "127 % of control"},
      {"measurement": "survivor count", "setting": "dose: 2.5 mg/kg/injection, schedule: Q01DX010 (ip), vehicle: saline", "value": "2 of 6"}
    ]},
    {"smiles": "Nc1nc(SCc2ccccc2)c2[nH]cnc2n1", "values": [
      {"measurement": "survivor count", "setting": "dose: 18.75 mg/kg/injection, schedule: Q01DX010 (ip), vehicle: carboxymethylcellulose (CMC)", "value": "5 of 10"},
      {"measurement": "survivor count", "setting": "dose: 37.5 mg/kg/injection, schedule: Q01DX010 (ip), vehicle: carboxymethylcellulose (CMC)", "value": "0 of 10"},
      {"measurement": "survivor count", "setting": "[1]", "value": "0 of 10"}
    ]},
    {"smiles": "Cc1cc(N(CCCl)CCCl)ccc1N=Nc1ccccc1C(=O)O", "values": [
      {"measurement": "survivor count", "setting": "dose: 30.0 mg/kg/injection, schedule: Q01DX010 (ip), vehicle: carboxymethylcellulose (CMC)", "value": "0 of 10"}
    ]},
    {"smiles": "CCCCn1cnc2c(=S)nc[nH]c21", "values": [
      {"measurement": "T/C", "setting": "dose: 25.0 mg/kg/injection, schedule: Q01DX010 (ip), vehicle: carboxymethylcellulose (CMC), evaluated on day 14", "value": "134 % of control"},
      {"measurement": "survivor count", "setting": "dose: 200.0 mg/kg/injection, schedule: Q01DX010 (ip), vehicle: carboxymethylcellulose (CMC)", "value": "0 of 10"}
    ]}
  ]
}
